# The list does not hold the whole screen: it is rich in T/C values a quarter to a half above the control, in often repeated tests (any T/C) and in doses without a T/C. Further doses and runs are listed elsewhere. T/C: endpoint of the treated group in % of that of the vehicle group. Some doses have a count of surviving animals in place of a T/C: the source files T/C as zero there, which appears to mark a toxic dose or a test without result, not a measured value. Some survivor counts are full or nearly so, which does not show that the dose was tolerated: the source hardly ever lists a survival T/C far under the control, and the zero likely stands for such cases as well. Counts of survivors are from the toxicity check (mostly the fifth day) where no day follows; animals may have died later. Schedules are NCI's codes, taken here to give the interval after Q, in days (D) or hours (H), and the number of doses after X. Some entries hold several experiments; the values are given in rising order. Where survival is the endpoint, the PubChem record calls one and a half times the control and up active, and a quarter to a half above the control has no call in these data; cut-offs in other NCI protocols can differ. Some T/C values carry the count of animals alive at the toxicity check (mostly the fifth day); where none is given, no animal had died by that day.
# System: P388 leukemia ip, CD2F1 mice, survival T/C
# Experiment: NCI In Vivo Anticancer Drug Screen. Data for tumor model P388 Leukemia (intraperitoneal) in CD2F1 (CDF1) mice
# Details: T/C endpoint: median survival time, higher T/C = longer survival
# [1] = dose: 200.0 mg/kg/injection, schedule: Q01DX009 (ip), vehicle: Klucel (hydroxypropylcellulose) (HPC)
# [2] = dose: 50.0 mg/kg/injection, schedule: Q01DX009 (ip), vehicle: saline with Tween-80
# [3] = dose: 100.0 mg/kg/injection, schedule: Q01DX009 (ip), vehicle: saline with Tween-80
# [4] = dose: 50.0 mg/kg/injection, schedule: Q01DX009 (ip), vehicle: saline
# [5] = dose: 100.0 mg/kg/injection, schedule: Q01DX009 (ip), vehicle: saline
# [6] = dose: 200.0 mg/kg/injection, schedule: Q01DX009 (ip), vehicle: saline
# [7] = dose: 50.0 mg/kg/injection, schedule: Q01DX009 (ip), vehicle: Klucel (hydroxypropylcellulose) (HPC)
# [8] = dose: 100.0 mg/kg/injection, schedule: Q01DX009 (ip), vehicle: Klucel (hydroxypropylcellulose) (HPC)
# [9] = dose: 200.0 mg/kg/injection, schedule: Q01DX009 (ip), vehicle: saline with Tween-80
compound,measurement,setting,value
[O-][n+]1c(Cl)c(Cl)[n+]([O-])c2[nH]c(C(F)(F)F)nc21,survivor count,"dose: 400.0 mg/kg/injection, schedule: Q01DX005 (ip), vehicle: saline with Tween-80",3 of 6
Cc1ccc2nc(-c3ccc4nc(-c5ccc(N=Nc6ccc(-c7nc8ccc(-c9nc%10ccc(C)c(S(=O)(=O)O)c%10s9)cc8s7)cc6)cc5)sc4c3)sc2c1S(=O)(=O)O,survivor count,"dose: 400.0 mg/kg/injection, schedule: Q01DX009 (ip), vehicle: saline",0 of 6
Cc1ccc(OP(=O)(Oc2ccc(C)cc2)Oc2ccc(C)cc2)cc1.Cc1ccc(OP(=O)(Oc2ccc(C)cc2)Oc2ccc(C)cc2)cc1.Cc1ccc(OP(=O)(Oc2ccc(C)cc2)Oc2ccc(C)cc2)cc1.Cc1ccc(OP(=O)(Oc2ccc(C)cc2)Oc2ccc(C)cc2)cc1.[O-][Cl+3]([O-])([O-])O.[Zn+2],survivor count,"dose: 400.0 mg/kg/injection, schedule: Q04DX003 (ip), vehicle: Klucel (hydroxypropylcellulose) (HPC)",4 of 6
CSc1n[nH]c(-c2cccs2)n1,survivor count,"dose: 240.0 mg/kg/injection, schedule: Q01DX005 (ip), vehicle: Klucel (hydroxypropylcellulose) (HPC)",1 of 6
O=C(CC(c1ccccc1)C(Sc1ccccc1)(Sc1ccccc1)Sc1ccccc1)c1ccccc1 (stereo not drawn),survivor count,[1],6 of 6
COC(=O)C1=C(C(=O)OC)C2CC3C4CC=C5CC(OC(C)=O)CCC5(C)C4CCC3(C)C2=C(OC(C)=O)C1 (stereo not drawn),survivor count,"dose: 200.0 mg/kg/injection, schedule: Q01DX005 (ip), vehicle: saline with Tween-80",6 of 6
COc1ccc(OC)c(C=Nc2ccc(S(=O)(=O)Nc3nccc(C)n3)cc2)c1,survivor count,[2],6 of 6
same,survivor count,[3],6 of 6
O=[N+]([O-])c1ccccc1-c1ccccc1N=Cc1ccccc1,survivor count,[4],6 of 6
same,survivor count,[5],5 of 6
same,survivor count,[6],6 of 6
C=COS(=O)O,survivor count,[4],0 of 6
same,survivor count,[5],0 of 6
same,survivor count,[6],0 of 6
O=C1Nc2ccccc2/C1=C/c1ccc(Cl)c(Cl)c1,survivor count,[7],6 of 6
same,survivor count,[8],6 of 6
same,survivor count,[1],3 of 6
COc1cccc2c1C(=O)c1c(O)c3c(c(O)c1C2=O)C[C@@](O)(C(=O)CSc1ccccn1)C[C@@H]3OC1CC(N)C(O)C(C)O1 (stereo partly drawn),T/C,"dose: 1.56 mg/kg/injection, schedule: Q01DX009 (ip), vehicle: water, evaluated on day 30",131 % of control
same,T/C,"dose: 1.56 mg/kg/injection, schedule: Q01DX009 (ip), vehicle: water, evaluated on day 45",133 % of control
same,T/C,"dose: 3.13 mg/kg/injection, schedule: Q01DX009 (ip), vehicle: water, evaluated on day 30",132 % of control
same,T/C,"dose: 3.13 mg/kg/injection, schedule: Q01DX009 (ip), vehicle: water, evaluated on day 45",145 % of control
same,T/C,"dose: 6.25 mg/kg/injection, schedule: Q01DX009 (ip), vehicle: water, evaluated on day 30",137 % of control
same,T/C,"dose: 6.25 mg/kg/injection, schedule: Q01DX009 (ip), vehicle: water, evaluated on day 45",142 % of control
same,T/C,"dose: 12.5 mg/kg/injection, schedule: Q01DX009 (ip), vehicle: water, evaluated on day 30",146 % of control
same,T/C,"dose: 12.5 mg/kg/injection, schedule: Q01DX009 (ip), vehicle: water, evaluated on day 45",141 % of control
same,survivor count,"dose: 25.0 mg/kg/injection, schedule: Q01DX009 (ip), vehicle: water",0 of 6 and 1 of 6
O=NN(CCCl)C(=O)OCC(Cl)(Cl)Cl,T/C,"dose: 12.5 mg/kg/injection, schedule: Q01DX001 (ip), vehicle: saline with Tween-80",127 % of control
same,survivor count,"dose: 100.0 mg/kg/injection, schedule: Q01DX001 (ip), vehicle: saline with Tween-80",4 of 5 and 5 of 5
same,survivor count,"dose: 150.0 mg/kg/injection, schedule: Q01DX001 (ip), vehicle: saline with Tween-80",5 of 5
Nc1nc([Se])c2ncn(C3CC(O)C(CO)O3)c2n1 (stereo not drawn),T/C,"dose: 3.13 mg/kg/injection, schedule: Q01DX009 (ip), vehicle: Klucel (hydroxypropylcellulose) (HPC)",143 % of control [5 of 6 alive]
same,T/C,"dose: 6.25 mg/kg/injection, schedule: Q01DX009 (ip), vehicle: Klucel (hydroxypropylcellulose) (HPC)",138 and 147 % of control
same,T/C,"dose: 12.5 mg/kg/injection, schedule: Q01DX009 (ip), vehicle: Klucel (hydroxypropylcellulose) (HPC)",148 % of control
O=NN(CCF)C(=O)Oc1ccc([N+](=O)[O-])cc1,survivor count,"dose: 50.0 mg/kg/injection, schedule: Q01DX001 (ip), vehicle: Klucel (hydroxypropylcellulose) (HPC)",0 of 6
same,survivor count,"dose: 100.0 mg/kg/injection, schedule: Q01DX001 (ip), vehicle: Klucel (hydroxypropylcellulose) (HPC)",0 of 6
c1ccc(-c2nn(-c3ccccc3)[n+](-c3ccccc3)n2)cc1,survivor count,"dose: 5.0 mg/kg/injection, schedule: Q01DX009 (ip), vehicle: saline with Tween-80",4 of 6
CCOP(=S)(N1CC1C)N1CC1C (stereo not drawn),T/C,[3],130 % of control
same,T/C,"dose: 150.0 mg/kg/injection, schedule: Q04DX003 (ip), vehicle: saline with Tween-80",131 % of control
same,survivor count,[9],5 of 6
Cc1cc2ccccc2c2c(C)c3cccc[n+]3cc12,survivor count,"dose: 50.0 mg/kg/injection, schedule: Q04DX003 (ip), vehicle: other",0 of 3
same,survivor count,"dose: 100.0 mg/kg/injection, schedule: Q04DX003 (ip), vehicle: other",0 of 3
CCCCCCCCCCSCC(CO)NC(=O)/C=C/c1c(C)[nH]c(=O)[nH]c1=O (stereo not drawn),T/C,"dose: 25.0 mg/kg/injection, schedule: Q01DX009 (ip), vehicle: other","125, 130, 134 % of control"
same,T/C,"dose: 50.0 mg/kg/injection, schedule: Q01DX009 (ip), vehicle: distilled water + Tween-80",130 % of control
same,T/C,"dose: 50.0 mg/kg/injection, schedule: Q01DX009 (ip), vehicle: other",137 and 144 % of control
same,T/C,"dose: 100.0 mg/kg/injection, schedule: Q01DX009 (ip), vehicle: distilled water + Tween-80",140 and 141 % of control
same,survivor count,"dose: 100.0 mg/kg/injection, schedule: Q01DX009 (ip), vehicle: other",4 of 6 and 6 of 6
same,survivor count,"dose: 200.0 mg/kg/injection, schedule: Q01DX009 (ip), vehicle: distilled water + Tween-80",0 of 6 and 1 of 6
same,survivor count,"dose: 200.0 mg/kg/injection, schedule: Q01DX009 (ip), vehicle: other",0 of 6 and 2 of 6
same,survivor count,"dose: 400.0 mg/kg/injection, schedule: Q01DX009 (ip), vehicle: other",0 of 6
C[N+](C)(C)CCC(=O)c1ccc(Cl)c(Cl)c1,survivor count,[2],0 of 6
same,survivor count,[3],0 of 6
same,survivor count,[9],0 of 6
Nc1nc(N)c2nc(SCc3ccc(Cl)cc3)c(N)nc2n1,survivor count,"dose: 60.0 mg/kg/injection, schedule: Q01DX005 (ip), vehicle: Klucel (hydroxypropylcellulose) (HPC)",6 of 6
CCN(CC)CCNC(=O)C(=O)NCCN(CC)CC,survivor count,"dose: 200.0 mg/kg/injection, schedule: Q01DX005 (ip), vehicle: saline",0 of 5
CSC(=S)Nc1nc2ccc(Cl)cc2s1,survivor count,[7],6 of 6
same,survivor count,[8],6 of 6
same,survivor count,[1],4 of 6
CC1C(N)CC2CC1C2(C)C (stereo not drawn),survivor count,[9],1 of 6
CCOC(=O)c1cc2nc3ccccn3c(=O)c2cc1N,survivor count,[2],6 of 6

# Reference: PubChem BioAssay AID330 (DTP/NCI, 2004)
